Record: PubChem BioAssay AID686937 (Drosophila RNAi Screening Center, 2013)
Aim: 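Genes whose loss weakens secretory pathway function in fly cells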 (primary screen). Cell system: Drosophila S2 cells expressing secreted horseradish peroxidase. Knock-down reagent: long dsRNA against Drosophila genes. Time to read-out: about 5.5 days (5 days dsRNA, then 12 h reporter induction). Challenge: reporter expression induced after 5 days of dsRNA, read 12 h later; inducer not stated. Detection: 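After 5 days of dsRNA and 12 h of reporter induction, medium peroxidase read by chemiluminescence and scored as per-plate z-score; higher values mean more reporter released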. Scale: z-score: higher = more reporter secreted into medium.
The screen tested about 23,000 reagents; this is an unselected part of those that have a named target and a result. 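Reduced-secretion tags in replicate 1 do not always agree with the z-scores; no criterion for assigning the tags was given.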 The numbers tell different reagents against one gene apart. Not all columns of the deposit are shown. Not given: the amount of reagent.

| gene | dsRNA no. | z-score, replicate 1 | z-score, replicate 2 | z-score, replicate 3 |
| --- | --- | --- | --- | --- |
| GATAd | 1 | 0.18 | 0.24 | – |
| Art8 | 1 | -0.3 | -0.03 | – |
| CG10909 | 1 | -0.01 | 0.2 | – |
| CG31249 | 1 | 0.51 | 0.46 | – |
| Ir67b | 1 | 0.64 | 0.54 | – |
| Csl4 | 1 | 0.25 | 0.24 | – |
| Csl4 | 2 | -0.6 | 0.04 | – |
| CG7806 | 1 | -0.06 | 0.01 | – |
| Cpr49Af | 1 | 0.31 | 0.26 | – |
| sens | 1 | -4.01 | -3.78 | – |
| omd | 1 | 0.93 | 0.86 | – |
| Obp19a | 1 | 0.39 | 0.46 | – |
| AstA-R1 | 1 | -1.96 | -0.71 | – |
| AstA-R1 | 2 | 0.33 | -0.01 | – |
| Mlp84B | 1 | 0.26 | 0.35 | – |
| CG42812 | 1 | 0.16 | 0.16 | – |
| CG2224 | 1 | 0.18 | 0.33 | – |
| CG9806 | 1 | 0.26 | 0.61 | – |
| Nepl16 | 1 | 0.09 | 0.23 | – |
| EMC4 | 1 | 0.36 | 0.24 | – |

2 entries from above, reformatted:
gene,dsRNA no.,"z-score, replicate 1","z-score, replicate 2","z-score, replicate 3"
CG7806,1,-0.06,0.01,
Cpr49Af,1,0.31,0.26,

Continued:
| gene | dsRNA no. | z-score, replicate 1 | z-score, replicate 2 | z-score, replicate 3 |
| --- | --- | --- | --- | --- |
| scyl | 1 | 0.51 | 0.35 | – |
| ChAT | 1 | 0.11 | 0.54 | – |
| ChAT | 2 | 0.19 | 0.49 | – |
| ChAT | 3 | 0.31 | -0.27 | – |
| CG8738 | 1 | 0.28 | 0.33 | – |
| isoQC | 1 | 0.07 | 0.35 | – |
| ATPsynB | 1 | -1.85 | -1.96 | – |
| Ddr | 1 | -0.17 | 0.19 | – |
| Ddr | 2 | 0.16 | 0.13 | – |
| Ddr | 3 | 0.03 | 0.12 | – |
| Ddr | 4 | 0.42 | 0.24 | 0.37 |
| Ddr | 5 | 0.26 | 0.29 | – |
| Ddr | 6 | 1.65 | -0.22 | – |
